# Measured values published in PubChem BioAssay AID1259415 (National Center for Advancing Translational Sciences (NCATS), 2018).
# Hit rate of the full screen: of about 410,000 compounds, about 18,000 (4.4%) were called active. The inconclusive results got no clear call from the source; some entries with a clear call stand among them for comparison. Cut-off read from the data, not from the text of the source: active = activity change below about -60%; inconclusive = no clear call, values can overlap the other calls; inactive = above about -39%.
# Assay: qHTS Assay for inhibitors of the human cytomegalovirus (HCMV)
# Conditions: HFF cells, HCMV-luciferase reporter, 72 h; at 57.5 µM; active compounds read low
# Method in brief: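 After 16 h attachment at 37C, HFF cells received test compound and HCMV-luciferase (1 PFU/cell); reporter luminescence read 72 h later, data normalized against buffer-only and known inhibitor Salinomycin.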
# % is set by controls: 0 for no effect and ±100 for the full control effect.
row,Structure (SMILES),"activity change, negative = inhibition"
1,CCC(=O)N1CCc2cc(S(=O)(=O)NCCC(=O)N3CC=C(c4ccccc4)CC3)ccc21,inconclusive: -55.4%
2,CCOC(=O)C1=NN(c2ccccc2)C2(S1)SC(C(C)=O)=C(C)N2c1ccccc1 (stereo not drawn),inconclusive: -41.8%
3,COc1cc(CNC(C)C23CC4CC(CC(C4)C2)C3)ccc1OCC(=O)NC(C)(C)C (stereo not drawn),inconclusive: -55.5%
4,COC(=O)c1ccc(N2C(=O)Cc3cc(OC)c(OC)cc3C2c2ccc(F)cc2)cc1 (stereo not drawn),inactive: 12.5%
5,O=C(OCC(O)C1OC(c2ccccc2)OC(COC(=O)c2ccccc2)C1O)c1ccccc1 (stereo not drawn),inconclusive: -57.4%
6,Cc1c(C(=O)Nc2cc(F)cc(F)c2)cnn1-c1ccccc1,inactive: 42.8%
7,O=C(CSc1ccccn1)NC1CCCc2c1cnn2-c1ccccc1F (stereo not drawn),inconclusive: -40.3%
8,Cc1ccc(C(=O)NC(=S)/C=C2\N(C)c3ccccc3C2(C)C)cc1,active: -68%
9,O=C(NC1=C(NC2CCS(=O)(=O)C2)C(=O)c2ccccc2C1=O)c1ccccc1 (stereo not drawn),active: -99.5%
10,O=C(Nc1nc2c(F)cc(F)cc2s1)c1ccc(S(=O)(=O)N2CCc3ccccc32)cc1,active: -99%
11,COc1ccc(S(=O)(=O)N2CCOCC2)cc1NC(=O)CSc1nnc(NC2CC2)s1,inactive: 18.1%
12,Cc1cc(NC(=O)CN2CCc3ccccc3C2)nc2c1c(=O)oc1ccccc12,inactive: 64.4%
13,Cc1ccc(S(=O)(=O)CCC(=O)Nc2cccc(Cl)c2)cc1,inconclusive: -42.3%
14,CCOc1ccc(Nc2nc(-c3cccc(Cl)c3)c3c(n2)-c2ccccc2OC3)cc1,active: -74.9%
15,COc1ccc(N(CC(=O)Nc2cccc(Cl)c2)S(=O)(=O)c2c(C)[nH]c(=O)[nH]c2=O)cc1,inactive: 13.9%
16,CC(C)NC(=S)NN=C1c2ccccc2-c2ccccc21,inactive: -8.12%
17,C[C@H]1CN([C@@H](C)CO)S(=O)(=O)c2ccc(/C=C/c3ccccc3)cc2O[C@H]1CN(C)C(=O)NC1CCCCC1,active: -62.6%
18,COCc1cc(=O)[nH]c(/N=C(\N)Nc2ccc(C)cc2C)n1,inconclusive: -40%
19,COc1cc(C(Nc2ccc(S(=O)(=O)N3CCC(C)CC3)cc2)C(=O)NCC2CCCO2)cc(OC)c1OC (stereo not drawn),inconclusive: -51.8%
20,CCOc1ccccc1NC(=S)N1CCC(c2nc3ccccc3o2)CC1,inconclusive: -40.1%
21,C/C(=N\NC(=S)NCCc1ccccc1)c1ccc(O)cc1O,inconclusive: -41.4%
22,O=C(CCc1nc(-c2ccccc2)no1)NC1CCCCCC1,inconclusive: -42.3%

row,Structure (SMILES),"activity change, negative = inhibition"
1,CNC(=O)COC(=O)c1ccccc1NC(=O)c1ccco1,active: -101%
2,O=C(c1ccccc1)c1ccccc1N/C=C/c1nnnn1-c1ccccc1,inconclusive: -46.7%
3,CC1CCC(N(C(=O)c2csnn2)C(C(=O)NC(C)(C)C)c2cccnc2)CC1 (stereo not drawn),inconclusive: -50.2%
4,O=C(O)c1ccc(N/N=C/c2ccc3c(c2)OCO3)cc1,active: -72.5%
5,COc1ccccc1CNC(=O)Cc1csc2nc(-c3ccc(F)cc3)cn12,inactive: -20.6%
6,C#CCN(C[C@@H]1[C@@H](OC(=O)NCCCCCC)[C@@H](OC(=O)NCCCCCC)Cn2c(=O)ccc(=O)n21)S(=O)(=O)c1ccc(C)cc1,active: -104%
7,CC(=O)c1ccc(C#CC(C)(C)O)s1,inconclusive: -42.3%
8,C=CC(=O)NN(C)c1ncc(C(F)(F)F)cc1Cl,inconclusive: -45.4%
9,NC(=O)N/N=C/c1c(Sc2nnnn2-c2ccccc2)nc2ccccn2c1=O,active: -72.8%
10,Cn1cccc1/C=C1/C(=O)NC(=O)N(Cc2ccccc2)C1=O,inconclusive: -54.7%
11,COc1ccc2oc(=O)cc(-c3cc4ccccc4o3)c2c1,inconclusive: -44.1%
12,Cc1cc(C)c(N=C2SCC(=O)N2Cc2ccco2)c(C)c1,inactive: -17.7%
13,CC(=O)c1ccc(N/C=C/C(=O)c2ccc(Br)cc2)cc1,inactive: 78.8%
14,COc1ccc(C(=O)NCCC(C)C)cc1S(=O)(=O)N1CCOCC1,inconclusive: -41.4%
15,CC(=O)CC1(OC(C)=O)C(=O)N(C)c2ccccc21 (stereo not drawn),active: -64.3%
16,O=C(CC(NC(=O)C(F)(F)F)c1ccccc1)Nc1nnc(CCc2ccccc2)s1 (stereo not drawn),active: -64.7%
17,Cc1ccc(S(=O)(=O)Nc2nc3ccc(S(C)(=O)=O)cc3s2)cc1,inconclusive: -40.5%
18,CC(=O)N1CCCc2ccc(NS(=O)(=O)c3cccc(Cl)c3)cc21,inconclusive: -43%
19,O=C(Cc1ccc(-c2ccccc2)cc1)NCCS(=O)(=O)N1CCN(c2ccc(F)cc2)CC1,inconclusive: -42.9%
20,COc1cc(C(=O)Nc2cc(C(F)(F)F)ccc2N2CCOCC2)ccc1O,inactive: 37.5%
21,Cn1ncc2c(N3CCN(c4ccc(F)cc4)CC3)ncnc21,inconclusive: -49.3%

# Look-ups from above:
# NC(=O)N/N=C/c1c(Sc2nnnn2-c2ccccc2)nc2ccccn2c1=O – activity change, negative = inhibition: active: -72.8%
# O=C(Cc1ccc(-c2ccccc2)cc1)NCCS(=O)(=O)N1CCN(c2ccc(F)cc2)CC1 – activity change, negative = inhibition: inconclusive: -42.9%
